Laboratory results as given in patent US20070134261A1, “Effectors of innate immunity” (priority 2001, published 2007).
At least one peptide structure holds a part that was inferred or is arguable (an end, a ring closure or a residue). Residues, ends and D or L forms follow the SMILES beside them. No end group written: not given here.

Columns and labels:
[1] = test system: RAW 264.7 mouse macrophage cells; assay type: cell-based; conditions: Peptide 20 μg/ml; 100 ng/ml E. coli 0111:B4 LPS, 6 h
[2] = test system: A549 human epithelial cells; test: Induction of chemokines (IL-8, MCP-1) in A549 cells (ELISA); assay type: cell-based; conditions: peptide 10 ug/ml, 24 hr
Experimental: The murine macrophage cell line RAW 264.7, THP-1 cells (human monocytes), a human epithelial cell line (A549), human bronchial epithelial cells (16HBEo14), and whole human blood were used. HBE cells were grown in MEM with Earle's. THP-1 cells were grown and maintained in RPMI 1640 medium. The RAW and A549 cell lines were maintained in DMEM supplemented with 10% fetal calf serum. […] DMEM was aspirated from cells grown overnight and replaced with fresh medium. After incubation of the cells with peptide, the release of chemokines into the culture supernatant was determined by ELISA (R&D Systems, Minneapolis, Minn.).

A549 epithelial cells = test: Human Operon arrays (PRHU04-S1) of A549 cells treated with peptide alone (Tables 31-37, 53); conditions: peptide 50 μg/ml, 4 h

CC[C@H](C)[C@H](NC(=O)CNC(=O)[C@H](CCCNC(=N)N)NC(=O)[C@H](CCSC)NC(=O)[C@H](CO)NC(=O)[C@@H](NC(=O)[C@H](CCCNC(=N)N)NC(=O)[C@H](CCCNC(=N)N)NC(=O)[C@@H](NC(=O)[C@H](CS)NC(=O)[C@H](Cc1c[nH]cn1)NC(=O)[C@@H](N)CCCNC(=N)N)[C@@H](C)CC)C(C)C)C(=O)N[C@H](C(=O)N[C@@H](CCSC)C(=O)N[C@@H](CCCNC(=N)N)C(=O)N[C@@H](CCCNC(=N)N)C(=O)N[C@@H](CS)C(=O)N[C@@H](CCCCN)C(=O)O)[C@@H](C)CC [SEQ ID NO: 38] (H-RHCIRRVSMRGIIMRRCK-OH)
Inhibition of TNF-α [1]: 54 ± 1% | IL-8 [2]: 0.171 ng/mL

KTKKFAKMLMMALKKVVSTAKPLAILS [SEQ ID NO: 42]
Inhibition of TNF-α [1]: 80.5 ± 0.76% | IL-8 [2]: 0.422 ng/mL

KMKSFAKMLMLALKKVLKVLTTALTLKAGLPS [SEQ ID NO: 43]
Inhibition of TNF-α [1]: 88.2 ± 0.65% | IL-8 [2]: 0.552 ng/mL

KESIKVIIRGMMVRMKK [SEQ ID NO: 35]
Inhibition of TNF-α [1]: 60.7 ± 0.76% | IL-8 [2]: 0.301 ng/mL

RAPYWPWAWARPRK [SEQ ID NO: 21]
Inhibition of TNF-α [1]: 67.8 ± 0.6% | IL-8 [2]: 0.275 ng/mL

SLPIKHDRLPATS [ID 15]
ID#:ctrl intensity ratio, AB006622 KIAA0284 protein (A549 epithelial cells): 11.1 | ID#:ctrl intensity ratio, AB010419 core-binding factor (A549 epithelial cells): 2.8 | ID#:ctrl intensity ratio, AB014615 fibroblast growth factor 8 (A549 epithelial cells): 3.4 | ID#:ctrl intensity ratio, AB017016 brain-specific protein (A549 epithelial cells): 2.8 | ID#:ctrl intensity ratio, AB020683 KIAA0876 protein (A549 epithelial cells): 5.3 | ID#:ctrl intensity ratio, AB022847 unknown (A549 epithelial cells): 4.3 | ID#:ctrl intensity ratio, AB023188 KIAA0971 protein (A549 epithelial cells): 3.4 | ID#:ctrl intensity ratio, AB023197 KIAA0980 protein (A549 epithelial cells): 8.8 | ID#:ctrl intensity ratio, AB023215 KIAA0998 protein (A549 epithelial cells): 14.4 | ID#:ctrl intensity ratio, AB032436 unknown (A549 epithelial cells): 3.2 | ID#:ctrl intensity ratio, AC004079 homeo box A2 (A549 epithelial cells): 2.0 | ID#:ctrl intensity ratio, AF013620 Immunoglobulin heavy variable 4-4 (A549 epithelial cells): 5.7 | ID#:ctrl intensity ratio, AF053712 TNF superfamily_member 11 (A549 epithelial cells): 6.2 | ID#:ctrl intensity ratio, AF055018 unknown (A549 epithelial cells): 2.6 | ID#:ctrl intensity ratio, AJ000512 serum/glucocorticoid regulated kinase (A549 epithelial cells): 2.3 | ID#:ctrl intensity ratio, AK000685 unknown (A549 epithelial cells): 3.9 | ID#:ctrl intensity ratio, AK000946 DKFZP566C243 protein (A549 epithelial cells): 5.4 | ID#:ctrl intensity ratio, AK001230 DKFZP586D211 protein (A549 epithelial cells): 2.2 | ID#:ctrl intensity ratio, AL033377 unknown (A549 epithelial cells): 2.3 | ID#:ctrl intensity ratio, AL049296 unknown (A549 epithelial cells): 3.2 | ID#:ctrl intensity ratio, AL050219 unknown (A549 epithelial cells): 9.2 | ID#:ctrl intensity ratio, AL080182 unknown (A549 epithelial cells): 2.1 | ID#:ctrl intensity ratio, AL109726 uknown (A549 epithelial cells): 4.4 | ID#:ctrl intensity ratio, AL137284 unknown (A549 epithelial cells): 6.0 | ID#:ctrl intensity ratio, AL137540 unknown (A549 epithelial cells): 10.9 | ID#:ctrl intensity ratio, AL137658 unknown (A549 epithelial cells): 10.8 | ID#:ctrl intensity ratio, AL137728 unknown (A549 epithelial cells): 6.8 | ID#:ctrl intensity ratio, AL157466 unknown (A549 epithelial cells): 5.2 | ID#:ctrl intensity ratio, D38550 E2F TF 3 (A549 epithelial cells): 4.5 | ID#:ctrl intensity ratio, D45399 phosphodiesterase (A549 epithelial cells): 2.8 | ID#:ctrl intensity ratio, D50926 KIAA0136 protein (A549 epithelial cells): 3.3 | ID#:ctrl intensity ratio, J04599 biglycan (A549 epithelial cells): 2.2 | ID#:ctrl intensity ratio, L17325 pre-T/NK cell associated protein (A549 epithelial cells): 4.7 | ID#:ctrl intensity ratio, M91036 hemoglobin gamma G (A549 epithelial cells): 6.8 | ID#:ctrl intensity ratio, M91036 hemoglobin_gamma A (A549 epithelial cells): 2.9 | ID#:ctrl intensity ratio, NM_012126 carbohydrate sulfotransferase 5 (A549 epithelial cells): 3.4 | ID#:ctrl intensity ratio, NM_012177 F-box protein (A549 epithelial cells): 2.8 | ID#:ctrl intensity ratio, NM_014178 HSPC156 protein (A549 epithelial cells): 6.9 | ID#:ctrl intensity ratio, NM_016331 zinc finger protein (A549 epithelial cells): 5.3 | ID#:ctrl intensity ratio, U22492 G protein-coupled receptor 8 (A549 epithelial cells): 10.8 | ID#:ctrl intensity ratio, U76010 solute carrier family 30 (A549 epithelial cells): 4.8 | ID#:ctrl intensity ratio, U76368 solute carrier family 7 (A549 epithelial cells): 3.2 | ID#:ctrl intensity ratio, X04014 unknown (A549 epithelial cells): 3.0 | ID#:ctrl intensity ratio, X04391 CD5 antigen (A549 epithelial cells): 7.7 | ID#:ctrl intensity ratio, X54673 Solute-carrier family 6 (A549 epithelial cells): 10.4 | ID#:ctrl intensity ratio, X58079 S100 calcium-binding protein A1 (A549 epithelial cells): 6.5 | ID#:ctrl intensity ratio, X75311 mevalonate kinase (A549 epithelial cells): 8.3 | ID#:ctrl intensity ratio, X78712 glycerol kinase pseudogene 2 (A549 epithelial cells): 5.3 | ID#:ctrl intensity ratio, X85740 CCR4 (A549 epithelial cells): 2.5 | ID#:ctrl intensity ratio, Z11898 POU domain_class 5 TF 1 (A549 epithelial cells): 2.5 | ID#:ctrl intensity ratio, AL031121 unknown (A549 epithelial cells; Formula B peptides): 5.5 | ID#:ctrl intensity ratio, NM_012450 sulfate transporter 1 (A549 epithelial cells; Formula B peptides): 9.9 | ID#:ctrl intensity ratio, U21931 fructose-bisphosphatase 1 (A549 epithelial cells; Formula B peptides): 3.6

RRRWKWAWPRRK [SEQ ID NO: 24]
Inhibition of TNF-α [1]: 60.5 ± 0.17% | IL-8 [2]: 0.139 ng/mL

RRRWKWAWPRRK [ID 24]
ID#:ctrl intensity ratio, AB010962 matrix metalloproteinase (A549 epithelial cells): 4.2 | ID#:ctrl intensity ratio, AB033080 cell cycle progression 8 protein (A549 epithelial cells): 4.2 | ID#:ctrl intensity ratio, AB037786 unknown (A549 epithelial cells): 11.0 | ID#:ctrl intensity ratio, AC007059 unknown (A549 epithelial cells): 2.4 | ID#:ctrl intensity ratio, AF023466 putative glycine-N-acyltransferase (A549 epithelial cells): 3.8 | ID#:ctrl intensity ratio, AF030555 fatty-acid-Coenzyme A ligase (A549 epithelial cells): 2.1 | ID#:ctrl intensity ratio, AF050078 growth arrest specific 11 (A549 epithelial cells): 4.4 | ID#:ctrl intensity ratio, AF052116 unknown (A549 epithelial cells): 2.7 | ID#:ctrl intensity ratio, AF064493 LIM binding domain 2 (A549 epithelial cells): 5.8 | ID#:ctrl intensity ratio, AF144412 lens epithelial cell protein (A549 epithelial cells): 3.5 | ID#:ctrl intensity ratio, AF181286 unknown (A549 epithelial cells): 2.3 | ID#:ctrl intensity ratio, AJ272208 IL-1R accessory protein-like 2 (A549 epithelial cells): 7.3 | ID#:ctrl intensity ratio, AJ272265 secreted phosphoprotein (A549 epithelial cells): 14.5 | ID#:ctrl intensity ratio, AJ275355 unknown (A549 epithelial cells): 5.5 | ID#:ctrl intensity ratio, AK001024 guanine nucleotide-binding protein (A549 epithelial cells): 14.1 | ID#:ctrl intensity ratio, AK001244 unknown (A549 epithelial cells): 2.8 | ID#:ctrl intensity ratio, AK001856 unknown (A549 epithelial cells): 7.8 | ID#:ctrl intensity ratio, AL022723 MHC, class I, F (A549 epithelial cells): 5.2 | ID#:ctrl intensity ratio, AL049423 unknown (A549 epithelial cells): 3.4 | ID#:ctrl intensity ratio, AL050125 unknown (A549 epithelial cells): 8.3 | ID#:ctrl intensity ratio, AL050201 unknown (A549 epithelial cells): 2.2 | ID#:ctrl intensity ratio, AL080107 unknown (A549 epithelial cells): 7.9 | ID#:ctrl intensity ratio, AL096729 unknown (A549 epithelial cells): 6.2 | ID#:ctrl intensity ratio, AL109792 unknown (A549 epithelial cells): 3.9 | ID#:ctrl intensity ratio, AL117457 cofilin 2 (A549 epithelial cells): 3.4 | ID#:ctrl intensity ratio, AL117567 DKFZP566O084 protein (A549 epithelial cells): 14.9 | ID#:ctrl intensity ratio, AL133602 unknown (A549 epithelial cells): 5.6 | ID#:ctrl intensity ratio, AL137362 unknown (A549 epithelial cells): 4.2 | ID#:ctrl intensity ratio, AL137489 unknown (A549 epithelial cells): 5.4 | ID#:ctrl intensity ratio, D38449 putative G protein coupled receptor (A549 epithelial cells): 5.2 | ID#:ctrl intensity ratio, J00210 interferon alpha 13 (A549 epithelial cells): 4.3 | ID#:ctrl intensity ratio, J03068 N-acylaminoacyl-peptide hydrolase (A549 epithelial cells): 6.0 | ID#:ctrl intensity ratio, L13720 growth arrest-specific 6 (A549 epithelial cells): 3.7 | ID#:ctrl intensity ratio, L22569 cathepsin B (A549 epithelial cells): 16.7 | ID#:ctrl intensity ratio, L40933 phosphoglucomutase 5 (A549 epithelial cells): 76.3 | ID#:ctrl intensity ratio, M27190 regenerating islet-derived 1 alpha (A549 epithelial cells): 3.6 | ID#:ctrl intensity ratio, M33906 MHC class II, DQ alpha 1 (A549 epithelial cells): 7.9 | ID#:ctrl intensity ratio, M37238 phospholipase C, gamma 2 (A549 epithelial cells): 4.6 | ID#:ctrl intensity ratio, M81933 cell division cycle 25A (A549 epithelial cells): 3.8 | ID#:ctrl intensity ratio, NM_001756 corticosteroid binding globulin (A549 epithelial cells): 5.5 | ID#:ctrl intensity ratio, NM_006963 zinc finger protein (A549 epithelial cells): 1241.2 | ID#:ctrl intensity ratio, NM_014099 PRO1768 protein (A549 epithelial cells): 3.4 | ID#:ctrl intensity ratio, S70348 Integrin beta 3 (A549 epithelial cells): 2.6 | ID#:ctrl intensity ratio, U27655 regulator of G-protein signaling (A549 epithelial cells): 4.5 | ID#:ctrl intensity ratio, U60179 growth hormone receptor (A549 epithelial cells): 4.7 | ID#:ctrl intensity ratio, U80770 unknown (A549 epithelial cells): 10.1 | ID#:ctrl intensity ratio, U86529 glutathione S-transferase zeta 1 (A549 epithelial cells): 5.1 | ID#:ctrl intensity ratio, U92981 unknown (A549 epithelial cells): 6.3 | ID#:ctrl intensity ratio, X05323 unknown (A549 epithelial cells): 3.5 | ID#:ctrl intensity ratio, X54131 protein tyrosine phosphatase, receptor type, (A549 epithelial cells): 4.1 | ID#:ctrl intensity ratio, X66403 cholinergic receptor (A549 epithelial cells): 6.7 | ID#:ctrl intensity ratio, X67734 contactin 2 (A549 epithelial cells): 8.4 | ID#:ctrl intensity ratio, X68879 empty spiracles homolog 1 (A549 epithelial cells): 4.7 | ID#:ctrl intensity ratio, X73113 myosin-binding protein C (A549 epithelial cells): 6.3 | ID#:ctrl intensity ratio, X84003 TATA box binding protein (A549 epithelial cells): 14.2 | ID#:ctrl intensity ratio, AL031121 unknown (A549 epithelial cells; Formula C peptides): 27.9 | ID#:ctrl intensity ratio, NM_012450 sulfate transport 1 (A549 epithelial cells; Formula C peptides): 8.7 | ID#:ctrl intensity ratio, U21931 fructose-bisphosphatase 1 (A549 epithelial cells; Formula C peptides): 9.6
